Assay results: article PMC4522599
No constants are given. Whether binding was seen depends on the method and setting. A result given as binding can be weak or reduced; the word gives no strength. Blank lines part the entries; values can stand above or below the binder they belong to.

How the values were obtained:
[1] = biological target: In trans activated C25A-cathepsin S (human); assay: surface acoustic wave biosensor (sam5BLUE); C25A-cathepsin S immobilized on a sam5 chip; cystatin C injected as a check of structural integrity; conditions not stated; both purified
[2] = biological target: In trans activated C25A-cathepsin S (human); assay: surface acoustic wave biosensor (sam5BLUE); C25A-cathepsin S immobilized; Bet v 1 at 10 μM at near neutral pH (20 mM Tris-HCl pH 8.5, 20 mM PBS pH 7.4, 20 mM imidazole pH 6.7; 50 mM NaCl except in PBS); both purified
[3] = biological target: In trans activated C25A-cathepsin S (human); assay: surface acoustic wave biosensor (sam5BLUE); C25A-cathepsin S immobilized; Bet v 1 at 10 μM at acidic pH (20 mM acetic acid pH 5.5 or pH 4.5, 50 mM NaCl); both purified
[4] = biological target: In trans activated C25A-cathepsin S (human); assay: surface acoustic wave biosensor (sam5BLUE); C25A-cathepsin S immobilized; heat-destabilized Bet v 1 (10 min at 60 °C, spin-filtered) injected, 1a at 10 to 100 μM, 1d at 2.5 to 40 μM; pH 6.7; both purified

binding [1]: binds
B1: cystatin C (protein, UniProt P01034 27-146)
chain: SSPGKPPRLVGGPMDASVEEEGVRRALDFAVGEYNKASNDMYHSRALQVVRARKQIVAGVNYFLDVELGRTTCTKTQPNLDNCPFHDQPHLKRKAFCSFQIYAVPWQGTMTLSKSTCQDA

binding [2]: binds weakly | binding [3]: binds | binding [4]: binds
B2: Bet v 1a (Bet v 1.0101), major birch pollen allergen (protein, UniProt P15494 2-160)
chain: GVFNYETETTSVIPAARLFKAFILDGDNLFPKVAPQAISSVENIEGNGGPGTIKKISFPEGFPFKYVKDRVDEVDHTNFKYNYSVIEGGPIGDTLEKISNEIKIVATPDGGSILKISNKYHTKGDHEVKAEQVKASKEMGETLLRAVESYLLAHSDAYN

binding [2]: binds | binding [3]: binds
B3: Bet v 1d (Bet v 1.0401), hypoallergenic isoform of the major birch pollen allergen (protein, UniProt P43177 1-160)
chain: MGVFNYEIETTSVIPAARLFKAFILDGDNLVPKVAPQAISSVENIEGNGGPGTIKKINFPEGFPFKYVKDRVDEVDHTNFKYNYSVIEGGPVGDTLEKISNEIKIVATPDGGCVLKISNKYHTKGNHEVKAEQVKASKEMGETLLRAVESYLLAHSDAYN
